The target in the experiment is GST-NS1 A/Udorn/72 wt (influenza A virus A/Udorn/72) (UniProt P03495). The experiment in a line: pull-down; only the target purified.

Protein sequences, listed by entry. Tags and fused reporters are not part of them.
UniProt P03495: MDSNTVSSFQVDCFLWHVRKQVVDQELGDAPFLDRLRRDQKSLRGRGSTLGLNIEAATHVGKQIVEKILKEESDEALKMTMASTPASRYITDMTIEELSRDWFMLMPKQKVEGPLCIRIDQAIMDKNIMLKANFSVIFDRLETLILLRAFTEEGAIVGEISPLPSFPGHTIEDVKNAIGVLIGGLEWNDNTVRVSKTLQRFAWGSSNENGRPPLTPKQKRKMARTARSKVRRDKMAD
UniProt O95639: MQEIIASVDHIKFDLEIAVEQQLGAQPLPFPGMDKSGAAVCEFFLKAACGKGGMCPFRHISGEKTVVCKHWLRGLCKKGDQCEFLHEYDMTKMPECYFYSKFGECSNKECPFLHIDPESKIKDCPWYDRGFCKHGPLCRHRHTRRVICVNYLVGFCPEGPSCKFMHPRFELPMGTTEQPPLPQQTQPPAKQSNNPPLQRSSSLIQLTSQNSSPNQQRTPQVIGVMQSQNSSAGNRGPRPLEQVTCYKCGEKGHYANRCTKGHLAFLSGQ

These are yes or no findings as the source states them, for the method shown. Binding seen in cells or lysates may run through a third protein. Some results given as binding are weak or reduced against the parent protein; the word gives no strength.

As to CPSF30 (from UniProt O95639 1-269), the binding result is “binds”.

The values above are taken from article PMC4112715.
